According to doi:10.1101/2022.08.09.503213 (bioRxiv, 2022):
Results are given in words; binding and its absence hold for the method and conditions named. Some binding calls cover weakened binding; strength is not graded here. For some assays here: Where a sequence is shown, tags or fusion partners need not be part of it.

T1: IFT122 (untagged) (human) (UniProt Q9HBG6)
T1 sequence: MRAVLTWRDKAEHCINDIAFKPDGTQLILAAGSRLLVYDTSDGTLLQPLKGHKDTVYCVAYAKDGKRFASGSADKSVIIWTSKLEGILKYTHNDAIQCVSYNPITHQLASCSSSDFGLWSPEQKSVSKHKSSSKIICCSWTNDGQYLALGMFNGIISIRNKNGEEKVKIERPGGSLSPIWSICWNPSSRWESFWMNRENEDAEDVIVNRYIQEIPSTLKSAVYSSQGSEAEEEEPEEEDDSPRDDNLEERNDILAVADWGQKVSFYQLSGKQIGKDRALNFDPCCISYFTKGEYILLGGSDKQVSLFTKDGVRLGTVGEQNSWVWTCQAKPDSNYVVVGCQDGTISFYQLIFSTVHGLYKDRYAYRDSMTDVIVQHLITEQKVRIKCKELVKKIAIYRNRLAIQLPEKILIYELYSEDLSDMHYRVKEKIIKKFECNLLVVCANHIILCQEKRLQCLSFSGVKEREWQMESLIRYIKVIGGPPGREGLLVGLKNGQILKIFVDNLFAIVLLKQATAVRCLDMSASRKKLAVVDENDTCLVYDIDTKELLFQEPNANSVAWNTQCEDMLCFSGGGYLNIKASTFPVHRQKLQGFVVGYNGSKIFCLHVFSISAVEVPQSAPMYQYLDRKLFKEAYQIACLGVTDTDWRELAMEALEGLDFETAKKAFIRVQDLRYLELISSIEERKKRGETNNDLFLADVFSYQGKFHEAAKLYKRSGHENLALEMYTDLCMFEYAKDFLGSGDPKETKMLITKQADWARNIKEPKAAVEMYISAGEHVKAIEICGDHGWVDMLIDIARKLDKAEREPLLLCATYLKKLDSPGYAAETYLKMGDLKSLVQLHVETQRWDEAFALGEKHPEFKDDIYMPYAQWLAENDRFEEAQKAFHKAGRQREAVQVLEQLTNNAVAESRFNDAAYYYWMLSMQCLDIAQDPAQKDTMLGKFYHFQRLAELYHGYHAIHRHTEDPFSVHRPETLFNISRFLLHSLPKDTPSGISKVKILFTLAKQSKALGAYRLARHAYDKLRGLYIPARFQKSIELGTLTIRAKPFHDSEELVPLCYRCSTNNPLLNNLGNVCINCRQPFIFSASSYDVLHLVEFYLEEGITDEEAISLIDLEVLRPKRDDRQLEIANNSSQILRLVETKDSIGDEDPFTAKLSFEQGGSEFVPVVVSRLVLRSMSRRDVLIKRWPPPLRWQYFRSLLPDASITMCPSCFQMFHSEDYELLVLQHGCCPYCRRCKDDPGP

T2: IFT139 (from ^ZZ-SNAPIFT139, TEV-cleaved) (human) (UniProt Q7Z4L5)
T2 sequence: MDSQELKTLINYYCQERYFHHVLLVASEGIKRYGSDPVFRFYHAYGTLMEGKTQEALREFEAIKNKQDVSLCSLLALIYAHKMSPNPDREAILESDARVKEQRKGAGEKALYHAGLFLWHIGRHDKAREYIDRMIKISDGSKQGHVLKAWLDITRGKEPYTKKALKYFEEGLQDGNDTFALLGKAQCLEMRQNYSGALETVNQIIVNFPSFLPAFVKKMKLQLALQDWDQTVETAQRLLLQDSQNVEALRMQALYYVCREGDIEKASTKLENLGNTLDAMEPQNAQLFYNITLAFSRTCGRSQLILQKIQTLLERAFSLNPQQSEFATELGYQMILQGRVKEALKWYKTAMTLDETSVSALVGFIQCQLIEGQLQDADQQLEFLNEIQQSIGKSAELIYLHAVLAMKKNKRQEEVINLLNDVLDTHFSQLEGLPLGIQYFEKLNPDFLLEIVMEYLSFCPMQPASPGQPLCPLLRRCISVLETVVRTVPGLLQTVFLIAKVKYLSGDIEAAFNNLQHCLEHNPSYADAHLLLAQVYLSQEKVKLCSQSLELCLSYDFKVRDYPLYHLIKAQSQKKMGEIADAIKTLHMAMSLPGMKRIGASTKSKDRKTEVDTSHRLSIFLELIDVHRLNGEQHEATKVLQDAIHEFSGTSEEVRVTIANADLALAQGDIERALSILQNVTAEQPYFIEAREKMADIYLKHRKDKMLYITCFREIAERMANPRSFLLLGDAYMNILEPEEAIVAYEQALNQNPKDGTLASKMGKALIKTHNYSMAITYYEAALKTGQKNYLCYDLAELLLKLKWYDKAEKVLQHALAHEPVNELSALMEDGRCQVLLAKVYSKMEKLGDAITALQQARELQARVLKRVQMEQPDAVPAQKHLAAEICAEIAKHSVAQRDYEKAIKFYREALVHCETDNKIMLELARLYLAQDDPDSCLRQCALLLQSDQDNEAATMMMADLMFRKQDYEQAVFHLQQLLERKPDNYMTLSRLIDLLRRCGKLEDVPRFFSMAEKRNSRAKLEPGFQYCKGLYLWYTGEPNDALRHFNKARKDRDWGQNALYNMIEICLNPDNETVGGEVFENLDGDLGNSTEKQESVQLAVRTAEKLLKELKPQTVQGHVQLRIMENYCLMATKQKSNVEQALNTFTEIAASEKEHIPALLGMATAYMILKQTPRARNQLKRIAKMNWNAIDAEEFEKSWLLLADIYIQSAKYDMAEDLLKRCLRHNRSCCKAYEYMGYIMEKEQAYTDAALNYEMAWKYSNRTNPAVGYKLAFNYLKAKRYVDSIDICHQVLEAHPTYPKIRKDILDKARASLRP

T3: IFT121 (from ^ZZIFT121, TEV-cleaved) (human) (UniProt Q9P2L0)
T3 sequence: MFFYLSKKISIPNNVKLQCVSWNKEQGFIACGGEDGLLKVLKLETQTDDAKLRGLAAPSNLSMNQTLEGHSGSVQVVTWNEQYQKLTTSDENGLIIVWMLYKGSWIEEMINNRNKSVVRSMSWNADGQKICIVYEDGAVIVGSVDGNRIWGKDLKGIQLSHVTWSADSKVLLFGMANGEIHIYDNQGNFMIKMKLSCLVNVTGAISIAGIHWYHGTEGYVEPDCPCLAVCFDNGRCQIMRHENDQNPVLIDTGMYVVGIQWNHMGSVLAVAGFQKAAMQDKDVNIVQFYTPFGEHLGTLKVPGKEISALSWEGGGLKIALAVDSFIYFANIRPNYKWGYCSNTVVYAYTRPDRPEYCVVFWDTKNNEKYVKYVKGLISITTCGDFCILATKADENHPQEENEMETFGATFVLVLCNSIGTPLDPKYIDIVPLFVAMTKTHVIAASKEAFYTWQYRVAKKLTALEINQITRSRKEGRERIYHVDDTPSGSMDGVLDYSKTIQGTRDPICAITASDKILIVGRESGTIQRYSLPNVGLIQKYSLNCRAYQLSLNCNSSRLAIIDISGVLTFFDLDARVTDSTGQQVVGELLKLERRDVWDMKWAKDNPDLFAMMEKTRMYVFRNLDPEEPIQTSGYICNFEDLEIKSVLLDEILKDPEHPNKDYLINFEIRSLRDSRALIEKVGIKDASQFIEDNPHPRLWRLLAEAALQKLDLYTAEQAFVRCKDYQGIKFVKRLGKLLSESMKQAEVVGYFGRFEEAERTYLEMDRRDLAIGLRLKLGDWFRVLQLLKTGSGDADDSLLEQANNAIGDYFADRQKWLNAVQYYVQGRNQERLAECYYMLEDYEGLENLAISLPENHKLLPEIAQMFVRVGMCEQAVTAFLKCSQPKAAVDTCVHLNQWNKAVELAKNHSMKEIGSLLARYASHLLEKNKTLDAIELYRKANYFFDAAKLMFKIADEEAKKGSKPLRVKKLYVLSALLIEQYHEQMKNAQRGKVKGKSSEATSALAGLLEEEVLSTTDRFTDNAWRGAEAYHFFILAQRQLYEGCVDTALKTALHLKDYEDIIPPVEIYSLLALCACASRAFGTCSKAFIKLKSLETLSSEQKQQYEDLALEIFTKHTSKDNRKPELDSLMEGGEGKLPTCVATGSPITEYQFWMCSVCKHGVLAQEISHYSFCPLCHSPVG

B1: IFT121 (from ^ZZIFT121, TEV-cleaved) (protein, UniProt Q9P2L0 1-1181)
chain: T3 sequence
B2: TULP3, full-length human (from TULP3^ZZ, TEV-cleaved) (protein, UniProt O75386 1-442)
chain: MEASRCRLSPSGDSVFHEEMMKMRQAKLDYQRLLLEKRQRKKRLEPFMVQPNPEARLRRAKPRASDEQTPLVNCHTPHSNVILHGIDGPAAVLKPDEVHAPSVSSSVVEEDAENTVDTASKPGLQERLQKHDISESVNFDEETDGISQSACLERPNSASSQNSTDTGTSGSATAAQPADNLLGDIDDLEDFVYSPAPQGVTVRCRIIRDKRGMDRGLFPTYYMYLEKEENQKIFLLAARKRKKSKTANYLISIDPVDLSREGESYVGKLRSNLMGTKFTVYDRGICPMKGRGLVGAAHTRQELAAISYETNVLGFKGPRKMSVIIPGMTLNHKQIPYQPQNNHDSLLSRWQNRTMENLVELHNKAPVWNSDTQSYVLNFRGRVTQASVKNFQIVHKNDPDYIVMQFGRVADDVFTLDYNYPLCAVQAFGIGLSSFDSKLACE
B3: IFT43 (untagged, or from ^ZZIFT43 after TEV cleavage) (protein, UniProt Q96FT9 1-208)
chain: MEDLLDLDEELRYSLATSRAKMGRRAQQESAQAENHLNGKNSSLTLTGETSSAKLPRCRQGGWAGDSVKASKFRRKASEEIEDFRLRPQSLNGSDYGGDIPIIPDLEEVQEEDFVLQVAAPPSIQIKRVMTYRDLDNDLMKYSAIQTLDGEIDLKLLTKVLAPEHEVREDDVGWDWDHLFTEVSSEVLTEWDPLQTEKEDPAGQARHT

Tests used:
[1] = target: T1, IFT122 (untagged) (human); assay: cryo-EM structure
[2] = target: T2, IFT139 (from ^ZZ-SNAPIFT139, TEV-cleaved) (human); assay: cryo-EM structure
[3] = target: human IFT-A complex, wild type (IFT144·IFT140·IFT122·IFT121·IFT43·IFT139) (human) (UniProt Q8NEZ3+Q96RY7+Q9HBG6+Q9P2L0+Q96FT9+Q7Z4L5); assay: SEC
[4] = target: T3, IFT121 (from ^ZZIFT121, TEV-cleaved) (human); assay: cryo-EM structure

binding [1]	binding [2]	binding [3]	binding [4]	Binder
binds	binds	–	–	B1
–	–	binds	–	B2
–	binds	–	binds	B3
